Data: PubChem BioAssay AID624291 (National Center for Advancing Translational Sciences (NCATS), 2012)
About 220 (0.063%) of roughly 350,000 compounds were called active. This list was built around the results that the source calls inconclusive (neither active nor inactive); the mix of calls is not that of the screen. Calls come from the whole dose curve; as a rule, active = well fitted activation curve with a large enough effect; inconclusive = small, poorly fitted or top-dose-only effect; inactive = no such curve, though single readings can be large or run the other way. Where the call is inconclusive, the potency comes from a doubtful curve fit.

Experiment: qHTS for Activators of Integrin-Mediated Alleviation for Muscular Dystrophy; note: nearly all actives have a fitted effect of over 60% in size;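 for activation: 100% = response of the positive control SU9516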
Conditions: alpha7betagal myoblasts, beta-gal FDG fluorescence, 48 h; activation: at 38.3 µM (top of the series)
Method in brief: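 Alpha7betagal+/- myoblasts (passage 13) were plated 16-24 hr, then exposed to compounds (1:260 dilution of DMSO stock) for 48 hours at 37C. After MPER lysis, β-galactosidase reporter activity was read as FDG fluorescence (ex 480/em 540) after 30 minutes.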
Potency is the fitted concentration of half-maximal effect.

| Structure (SMILES) | Potency | activation |
| --- | --- | --- |
| COc1ccc(S(=O)(=O)N2CCCCCC2)cc1C(=O)OC(C)C(N)=O (stereo unspecified) | inconclusive: 31.6 µM [activator, single point] | – |
| CCOc1ccccc1CN1CCN(C2CCOCC2)CC1CCO (stereo unspecified) | inconclusive: 8.91 µM [activator, single point] | – |
| COc1ccc(-c2nc3c(c(=O)[nH]c(=O)n3Cc3ccccc3)n2Cc2ccccc2)cc1 | – | inactive: -10.1% |
| Cc1ccc(C(=O)NCC(=O)OCC(=O)c2ccc(Cl)s2)cc1 | – | inactive: -9.46% |
| COc1ccc(Cc2nnc(NC(=O)C3CC(=O)N(c4ccccc4C)C3)s2)cc1OC (stereo unspecified) | – | inactive: 14.7% |
| COc1ccccc1C(=O)NC(CCSC)C(=O)Nc1ccc(C)c(S(=O)(=O)N2CCOCC2)c1 (stereo unspecified) | inconclusive: 5.01 µM [activator, single point] | – |
| CC12CCC(=O)N1C(C(=O)Nc1nc3ccc(F)cc3s1)CS2 (stereo unspecified) | inconclusive: 8.91 µM [activator, partial curve, poor fit] | – |
| CCSc1nc2c(cnn2-c2ccccc2)c(=O)n1N | – | inactive: -4.25% |
| CCC(NC(=O)NNC(N)=S)(C(F)(F)F)C(F)(F)F | inconclusive: 17.8 µM [activator, single point] | – |
| COc1cccc(/C(O)=C/c2nc3ccc(C(=O)NCCc4cccc(C)c4)cc3[nH]c2=O)c1 | – | inactive: -42.8% |
| O=C(NCc1ccccn1)c1cc(-c2ccc(-c3ccccc3)cc2)nc2ccccc12 | – | inactive: -19.7% |
| COc1ccc(C(C)(C)C)cc1NC(=O)CCNC(=O)c1ccco1 | inconclusive: 5.01 µM [activator, single point] | – |
| N#CC1=C(N)OC2=C(C(=O)CCC2)C1c1cc2c(cc1Br)OCO2 (stereo unspecified) | inconclusive: 28.2 µM [activator, single point] | – |
| COC(=O)c1cc(C(=O)c2cc(F)ccc2O)cn2c(=O)c3c(C)c(C)sc3nc12 | inconclusive: 10 µM [activator, partial curve, poor fit] | – |
| COc1ccccc1NS(=O)(=O)c1ccc(O)c(C(=O)OCC(=O)N2c3ccccc3CC2C)c1 (stereo unspecified) | inconclusive: 1 µM [activator, partial curve, poor fit] | – |
| Cc1cccn2c(=O)c3cc(C#N)c(=NC(=O)c4cccs4)n(CCCOC(C)C)c3nc12 | inconclusive: 7.94 µM [activator, partial curve, poor fit] | – |
| Cc1ccc(CN(CC(=O)NCc2ccc3c(c2)OCO3)C(=O)c2csnn2)cc1 | inconclusive: 11.2 µM [activator, single point] | – |
| Cc1ccc(Cl)cc1NC(=S)N(CCN(C)C)Cc1cccs1 | inconclusive: 2.51 µM [activator, single point] | – |
| Cc1ccc(C)c(NC(=S)NCC(c2ccccc2)N(C)C)c1 (stereo unspecified) | – | inactive: -17.7% |
| CCc1c(-c2ccccc2)nc2sc3c(c2c1N)CCCC3 | – | inactive: -8.85% |
| Cc1ccc(NC(=O)CCn2c(=O)[nH]c3ccsc3c2=O)cc1C | inconclusive: 2.82 µM [activator, partial curve, poor fit] | – |
| COc1ccc(CCNC(=O)c2cc3c(cc2Cl)N2CCCCCC2=NS3(=O)=O)cc1 | – | inactive: 6.5% |

| Structure (SMILES) | Potency | activation |
| --- | --- | --- |
| COc1ccc(-c2[nH]ncc2Oc2ccccc2OC)c(O)c1 | – | inactive: 2.51% |
| COc1ccccc1N1CCN(C2CC(=O)N(c3cccc(Cl)c3)C2=O)CC1 (stereo unspecified) | inconclusive: 5.62 µM [activator, partial curve, poor fit] | – |
| Cn1cc(C=C2C(=O)OC3(CCCCC3)OC2=O)c2ccccc21 | inconclusive: 5.01 µM [activator, single point] | – |
| CCC(=O)c1ccc(OCC(O)Cn2nnc3ccccc32)cc1 (stereo unspecified) | – | inactive: 0% |
| Cc1ccc(-n2c(=O)c3c4c(sc3n3c(=S)[nH]nc23)CCC4)cc1 | – | inconclusive: -47.6% [activator] |
| O=C(CSc1n[nH]c(=O)[nH]c1=O)Nc1ccc(C(=O)O)cc1 | inconclusive: 2.82 µM [activator, single point] | – |
| C/C(=N\NC(=O)c1cc(C)nc2ccccc12)c1ccncc1 | inconclusive: 5.01 µM [activator, single point] | – |
| Cc1oc(-c2ccc(Cl)cc2)nc1CS(=O)CC(=O)NCc1ccccc1 (stereo unspecified) | – | inactive: -37.4% |
| O=C(O)Cc1c(C(=O)O)nnn1-c1cccc(C(F)(F)F)c1 | inconclusive: 28.2 µM [activator, single point] | – |
| COC(=O)C1=C(C)N(Cc2ccccc2)C(=S)N[C@H]1c1cccc(C(F)(F)F)c1 | – | inactive: -3.25% |
| CCC(=O)N1CCN(c2ccc(NC(=O)c3ccc4c(c3)OCCO4)cc2)CC1 | inconclusive: 28.2 µM [activator, single point] | – |
| O=C(CN1CCc2ccccc21)NCc1ccccc1Cl | inconclusive: 2.51 µM [activator, partial curve, poor fit] | – |
| CCOc1ccc(C2C(C(C)=O)=C(O)C(=O)N2CCc2c[nH]c3ccccc23)cc1 (stereo unspecified) | – | inactive: -19.9% |
| CC1CCC2(CC1)NC(=O)N(NC(=O)CCc1c[nH]c3ccccc13)C2=O (stereo unspecified) | inconclusive: 3.55 µM [activator, single point] | – |
| Cc1ccc(-c2cc(C(=O)NC3CCCCC3)no2)cc1 | inconclusive: 5.01 µM [activator, partial curve, poor fit] | – |
| COc1ccc(OC)c2[nH]c(=O)c(CCNS(=O)(=O)c3ccc(C)cc3)cc12 | inconclusive: 28.2 µM [activator, single point] | – |
| O=C(O)C1=C(OCc2ccccc2)C(=O)NCC1 | inconclusive: 5.01 µM [activator, single point] | – |
| CCC(=O)N1CCN(c2ccc(NC(=S)NC(=O)COc3ccccc3)cc2)CC1 | inconclusive: 8.91 µM [activator, single point] | – |
| CC(=O)Nc1ccc(S(=O)(=O)NCC(=O)OCC(=O)NNC(=O)c2ccccc2)cc1 | inconclusive: 28.2 µM [activator, single point] | – |
| O=C(C[n+]1ccccc1)N/N=C/c1ccc(Cl)c(Cl)c1 | inconclusive: 2.24 µM [activator, full curve, poor fit] | – |
| COn1c(SC(C)C)nc2ccccc2c1=O | inconclusive: 5.01 µM [activator, single point] | – |
| Cc1cccc(NCCC(=O)c2ccc([N+](=O)[O-])cc2)c1C | – | inactive: -46.1% |

In a second layout: results already given.
Structure (SMILES)	Potency	activation
COC(=O)C1=C(C)N(Cc2ccccc2)C(=S)N[C@H]1c1cccc(C(F)(F)F)c1	–	inactive: -3.25%
CCC(=O)N1CCN(c2ccc(NC(=O)c3ccc4c(c3)OCCO4)cc2)CC1	inconclusive: 28.2 µM [activator, single point]	–

(further entries)

| Structure (SMILES) | Potency | activation |
| --- | --- | --- |
| Cc1cc(C)c(NC(=O)CN2C(=O)NC(CCc3ccccc3)C2=O)c(C)c1 (stereo unspecified) | inconclusive: 31.6 µM [activator, partial curve, poor fit] | – |
| CC(C(=O)Nc1cccc(Br)c1)c1ccc([N+](=O)[O-])cc1 (stereo unspecified) | inconclusive: 3.16 µM [activator, full curve, poor fit] | – |
| CCCCCNC(=O)c1ccc(NS(=O)(=O)c2ccc3[nH]c(=O)[nH]c3c2)cc1 | inconclusive: 12.6 µM [activator, partial curve, poor fit] | – |
| O=C(NCCO)/C(=C\c1ccco1)NC(=O)c1cccs1 | inconclusive: 28.2 µM [activator, single point] | – |
| COc1ccc(-c2nc(-c3ccccc3)no2)c(OC)c1 | inconclusive: 1.26 µM [activator, partial curve, poor fit] | – |
| COCC(=O)Nc1cccc(-c2ccc3nncn3n2)c1 | inconclusive: 10 µM [activator, single point] | – |
| CSc1ncc(S(=O)(=O)c2ccccc2)c(=O)[nH]1 | inconclusive: 0.708 µM [activator, full curve, poor fit] | – |
| CSc1cccc(NC(=O)c2sc3nc4n(c(=O)c3c2C)CCC4)c1 | – | inactive: 11.2% |
| Cc1ccc(S(=O)(=O)Nc2ccc3ncccc3c2[N+](=O)[O-])cc1 | – | inactive: 8.42% |
| CC(=Nc1ccccc1)Nc1ccccc1 | inconclusive: 5.62 µM [activator, partial curve, poor fit] | – |
| Cc1ccc(OCCSc2nc3ccccc3n2CCC(=O)O)cc1 | inconclusive: 28.2 µM [activator, single point] | – |
| C=CCc1cc2c(oc(=O)c3ccccc32)c(C)c1O | inconclusive: 2.51 µM [activator, partial curve, poor fit] | – |
| COc1ccc(CCNC(=O)C(=O)NCC2OCCN2S(=O)(=O)c2ccc3c(c2)OCCO3)cc1 (stereo unspecified) | inconclusive: 2 µM [activator, full curve, poor fit] | – |
| Cc1ccc(N/C=C(\C2OC(=O)c3ccccc32)[N+](=O)[O-])c(C)c1 (stereo unspecified) | – | inactive: 0% |
| O=C(NCC1COc2ccccc2O1)c1ccccc1 (stereo unspecified) | – | inactive: 5.5% [at 7.66 µM] |
| CCCCOC(=O)c1ccc(NC(=S)NC(=O)c2c(Cl)cnn2C)cc1 | – | inactive: -5.14% |
| O=c1c2sc3nc(N4CCOCC4)c4c(c3c2ncn1C(c1ccccc1)c1ccccc1)CCCC4 | inconclusive: 2.82 µM [activator, single point] | – |
| Cc1c(C(=O)N2CCN(c3ncccn3)CC2)oc2c(Cl)cccc12 | inconclusive: 5.62 µM [activator, partial curve, poor fit] | – |
| COc1cc(OC)cc(C(=O)NC(=S)Nc2cccnc2)c1 | inconclusive: 1.41 µM [activator, partial curve, poor fit] | – |
| C/C(=N\NC(=O)c1c(Cl)cnn1C)c1ccc(NC(=O)c2ccc(Br)o2)cc1 | inconclusive: 3.16 µM [activator, single point] | – |
| O=C1Nc2c(c(=O)[nH]c(=O)n2Cc2ccccc2)C1(NS(=O)(=O)c1ccccc1)C(F)(F)F (stereo unspecified) | inconclusive: 5.01 µM [activator, single point] | – |
| CC(=O)c1ccc(N2CCN(C(=O)c3ccc(Cl)c(NC4=NC5CS(=O)(=O)CC5S4)c3)CC2)cc1 (stereo unspecified) | inconclusive: 3.16 µM [activator, partial curve, poor fit] | – |

Filtered by structure: those above with a thiophene ring, fused or not (10)

| Structure (SMILES) | Potency | activation |
| --- | --- | --- |
| Cc1ccc(C(=O)NCC(=O)OCC(=O)c2ccc(Cl)s2)cc1 | – | inactive: -9.46% |
| COC(=O)c1cc(C(=O)c2cc(F)ccc2O)cn2c(=O)c3c(C)c(C)sc3nc12 | inconclusive: 10 µM [activator, partial curve, poor fit] | – |
| Cc1cccn2c(=O)c3cc(C#N)c(=NC(=O)c4cccs4)n(CCCOC(C)C)c3nc12 | inconclusive: 7.94 µM [activator, partial curve, poor fit] | – |
| Cc1ccc(Cl)cc1NC(=S)N(CCN(C)C)Cc1cccs1 | inconclusive: 2.51 µM [activator, single point] | – |
| CCc1c(-c2ccccc2)nc2sc3c(c2c1N)CCCC3 | – | inactive: -8.85% |
| Cc1ccc(NC(=O)CCn2c(=O)[nH]c3ccsc3c2=O)cc1C | inconclusive: 2.82 µM [activator, partial curve, poor fit] | – |
| Cc1ccc(-n2c(=O)c3c4c(sc3n3c(=S)[nH]nc23)CCC4)cc1 | – | inconclusive: -47.6% [activator] |
| O=C(NCCO)/C(=C\c1ccco1)NC(=O)c1cccs1 | inconclusive: 28.2 µM [activator, single point] | – |
| CSc1cccc(NC(=O)c2sc3nc4n(c(=O)c3c2C)CCC4)c1 | – | inactive: 11.2% |
| O=c1c2sc3nc(N4CCOCC4)c4c(c3c2ncn1C(c1ccccc1)c1ccccc1)CCCC4 | inconclusive: 2.82 µM [activator, single point] | – |
